From the supplement of paper PMC6411743
± gives the standard deviation of the averaged measurements. The list shows a part of the results.

Protein sequences, listed by entry. Tags and fused reporters are not part of them. Lines headed by an entry give the natural chain unless they say otherwise; changes in a name come on top.
UniProt P60842, whole entry: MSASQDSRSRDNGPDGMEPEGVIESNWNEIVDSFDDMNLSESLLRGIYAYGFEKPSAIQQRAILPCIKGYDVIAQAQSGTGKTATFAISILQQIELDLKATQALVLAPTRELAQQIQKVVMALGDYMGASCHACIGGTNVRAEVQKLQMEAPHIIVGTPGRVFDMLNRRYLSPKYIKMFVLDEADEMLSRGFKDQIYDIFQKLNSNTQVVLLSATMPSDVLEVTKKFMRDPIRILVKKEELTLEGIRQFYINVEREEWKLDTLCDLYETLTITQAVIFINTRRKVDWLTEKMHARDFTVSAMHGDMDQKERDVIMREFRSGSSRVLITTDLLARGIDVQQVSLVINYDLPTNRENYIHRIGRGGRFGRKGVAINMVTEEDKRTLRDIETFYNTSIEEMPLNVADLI
UniProt P62993, whole entry, looked up: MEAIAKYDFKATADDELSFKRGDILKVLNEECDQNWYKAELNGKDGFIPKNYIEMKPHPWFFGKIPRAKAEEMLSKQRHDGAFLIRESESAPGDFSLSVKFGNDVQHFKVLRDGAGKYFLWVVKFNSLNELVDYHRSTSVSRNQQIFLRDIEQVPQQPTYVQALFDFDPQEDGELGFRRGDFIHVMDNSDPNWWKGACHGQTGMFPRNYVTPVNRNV
UniProt P52788: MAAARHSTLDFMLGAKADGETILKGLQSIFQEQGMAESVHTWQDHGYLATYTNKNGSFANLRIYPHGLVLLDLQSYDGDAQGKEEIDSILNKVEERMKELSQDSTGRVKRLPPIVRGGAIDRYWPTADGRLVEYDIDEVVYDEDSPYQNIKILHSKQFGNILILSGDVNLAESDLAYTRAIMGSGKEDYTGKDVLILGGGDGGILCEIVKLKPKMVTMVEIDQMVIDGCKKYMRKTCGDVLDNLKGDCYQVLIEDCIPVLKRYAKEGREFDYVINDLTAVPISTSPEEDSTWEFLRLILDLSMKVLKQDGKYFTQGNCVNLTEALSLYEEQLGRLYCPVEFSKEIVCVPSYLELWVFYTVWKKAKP
UniProt P62330: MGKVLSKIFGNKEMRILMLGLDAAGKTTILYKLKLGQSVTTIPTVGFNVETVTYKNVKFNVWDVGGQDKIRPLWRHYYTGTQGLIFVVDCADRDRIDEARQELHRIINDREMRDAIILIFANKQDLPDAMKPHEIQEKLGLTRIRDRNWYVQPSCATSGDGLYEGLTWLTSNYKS
UniProt P85037: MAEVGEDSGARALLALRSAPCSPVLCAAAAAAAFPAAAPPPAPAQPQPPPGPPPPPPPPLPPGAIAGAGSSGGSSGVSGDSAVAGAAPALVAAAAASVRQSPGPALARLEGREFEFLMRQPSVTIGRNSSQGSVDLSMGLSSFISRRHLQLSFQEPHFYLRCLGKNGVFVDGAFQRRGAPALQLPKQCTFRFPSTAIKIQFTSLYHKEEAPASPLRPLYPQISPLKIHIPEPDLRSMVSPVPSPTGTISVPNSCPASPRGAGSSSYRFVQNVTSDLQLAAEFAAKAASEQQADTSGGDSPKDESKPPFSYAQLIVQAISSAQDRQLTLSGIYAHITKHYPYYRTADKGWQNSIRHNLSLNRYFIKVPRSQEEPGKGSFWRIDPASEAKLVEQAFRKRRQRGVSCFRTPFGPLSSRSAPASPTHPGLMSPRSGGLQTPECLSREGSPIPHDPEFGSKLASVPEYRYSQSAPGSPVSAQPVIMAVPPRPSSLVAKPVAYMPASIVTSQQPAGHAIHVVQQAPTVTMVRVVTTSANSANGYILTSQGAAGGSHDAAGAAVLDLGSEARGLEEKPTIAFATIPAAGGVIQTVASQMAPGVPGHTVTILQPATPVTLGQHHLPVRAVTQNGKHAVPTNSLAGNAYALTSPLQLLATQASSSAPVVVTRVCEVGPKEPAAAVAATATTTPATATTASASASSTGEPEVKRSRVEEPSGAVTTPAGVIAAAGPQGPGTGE
UniProt P62195, whole entry: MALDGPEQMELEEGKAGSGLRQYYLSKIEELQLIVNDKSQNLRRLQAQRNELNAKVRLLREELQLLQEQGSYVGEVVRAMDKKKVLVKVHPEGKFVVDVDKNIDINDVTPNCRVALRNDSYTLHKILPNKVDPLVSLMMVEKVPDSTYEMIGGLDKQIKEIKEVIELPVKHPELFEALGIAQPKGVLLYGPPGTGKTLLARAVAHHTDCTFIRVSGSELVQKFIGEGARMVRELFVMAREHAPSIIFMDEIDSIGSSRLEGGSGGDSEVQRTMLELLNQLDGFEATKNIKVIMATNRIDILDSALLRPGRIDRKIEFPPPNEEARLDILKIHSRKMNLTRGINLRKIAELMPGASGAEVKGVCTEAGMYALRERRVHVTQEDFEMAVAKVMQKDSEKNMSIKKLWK
UniProt P61081: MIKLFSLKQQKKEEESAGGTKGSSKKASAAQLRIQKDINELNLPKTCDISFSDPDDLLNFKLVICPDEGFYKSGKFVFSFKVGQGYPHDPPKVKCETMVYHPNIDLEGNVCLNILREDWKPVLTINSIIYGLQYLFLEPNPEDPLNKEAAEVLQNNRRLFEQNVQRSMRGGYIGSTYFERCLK
UniProt P84090, whole entry, looked up: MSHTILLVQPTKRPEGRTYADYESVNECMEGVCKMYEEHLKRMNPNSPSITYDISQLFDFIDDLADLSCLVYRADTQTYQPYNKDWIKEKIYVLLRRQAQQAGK
UniProt P61009: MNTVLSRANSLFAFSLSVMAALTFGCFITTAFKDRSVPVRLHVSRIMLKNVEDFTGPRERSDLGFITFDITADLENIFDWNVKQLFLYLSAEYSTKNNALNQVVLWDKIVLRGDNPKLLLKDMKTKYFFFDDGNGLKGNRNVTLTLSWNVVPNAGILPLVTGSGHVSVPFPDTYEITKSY
UniProt P68371, whole entry: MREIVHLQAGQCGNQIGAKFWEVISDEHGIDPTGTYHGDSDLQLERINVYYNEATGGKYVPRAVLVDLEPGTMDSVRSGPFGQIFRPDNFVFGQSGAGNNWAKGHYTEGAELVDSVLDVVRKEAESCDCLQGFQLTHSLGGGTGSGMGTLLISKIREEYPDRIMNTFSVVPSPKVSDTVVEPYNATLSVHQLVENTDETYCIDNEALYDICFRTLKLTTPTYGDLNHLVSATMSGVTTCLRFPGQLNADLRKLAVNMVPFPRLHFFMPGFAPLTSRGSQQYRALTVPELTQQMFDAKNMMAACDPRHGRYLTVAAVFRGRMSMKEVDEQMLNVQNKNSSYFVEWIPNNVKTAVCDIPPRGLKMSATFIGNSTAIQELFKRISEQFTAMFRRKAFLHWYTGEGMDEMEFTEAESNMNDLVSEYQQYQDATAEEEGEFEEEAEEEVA
UniProt P54578: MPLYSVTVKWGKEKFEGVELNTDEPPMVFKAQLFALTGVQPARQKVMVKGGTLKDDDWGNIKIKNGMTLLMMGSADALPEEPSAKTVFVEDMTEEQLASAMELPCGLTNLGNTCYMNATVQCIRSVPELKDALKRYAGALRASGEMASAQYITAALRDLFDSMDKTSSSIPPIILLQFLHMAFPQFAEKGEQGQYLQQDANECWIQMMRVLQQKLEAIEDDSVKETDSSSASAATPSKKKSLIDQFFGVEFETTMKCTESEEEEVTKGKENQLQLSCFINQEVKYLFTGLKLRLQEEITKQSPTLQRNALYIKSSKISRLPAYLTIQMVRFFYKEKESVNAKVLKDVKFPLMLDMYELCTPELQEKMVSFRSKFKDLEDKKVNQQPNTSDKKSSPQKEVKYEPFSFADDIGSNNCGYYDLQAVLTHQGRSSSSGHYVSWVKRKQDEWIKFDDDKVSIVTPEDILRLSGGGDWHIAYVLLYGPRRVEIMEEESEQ
UniProt P61764, whole entry: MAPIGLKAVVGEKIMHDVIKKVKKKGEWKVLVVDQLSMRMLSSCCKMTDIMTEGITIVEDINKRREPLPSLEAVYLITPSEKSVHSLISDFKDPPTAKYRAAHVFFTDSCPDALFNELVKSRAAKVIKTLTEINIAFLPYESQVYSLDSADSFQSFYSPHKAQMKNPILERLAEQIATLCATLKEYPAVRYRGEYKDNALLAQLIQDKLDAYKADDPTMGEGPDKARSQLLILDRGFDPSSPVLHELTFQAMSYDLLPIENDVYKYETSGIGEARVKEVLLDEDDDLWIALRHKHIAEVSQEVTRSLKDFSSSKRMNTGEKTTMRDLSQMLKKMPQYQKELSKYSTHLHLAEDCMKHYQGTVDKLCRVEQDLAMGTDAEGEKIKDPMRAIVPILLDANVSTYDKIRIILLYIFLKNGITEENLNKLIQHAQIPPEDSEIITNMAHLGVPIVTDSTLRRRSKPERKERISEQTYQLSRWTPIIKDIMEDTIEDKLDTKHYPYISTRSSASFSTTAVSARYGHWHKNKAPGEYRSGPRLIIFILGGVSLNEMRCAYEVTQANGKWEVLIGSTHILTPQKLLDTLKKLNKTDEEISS
UniProt Q00534, whole entry: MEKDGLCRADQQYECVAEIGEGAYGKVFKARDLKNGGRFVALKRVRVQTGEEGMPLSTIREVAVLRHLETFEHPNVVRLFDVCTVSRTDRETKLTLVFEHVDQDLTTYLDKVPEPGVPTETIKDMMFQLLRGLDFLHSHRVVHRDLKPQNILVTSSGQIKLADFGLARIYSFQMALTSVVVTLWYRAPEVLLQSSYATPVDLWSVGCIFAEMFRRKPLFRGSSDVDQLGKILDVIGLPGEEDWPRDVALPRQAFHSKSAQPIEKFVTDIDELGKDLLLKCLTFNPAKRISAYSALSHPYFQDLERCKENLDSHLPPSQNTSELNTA
UniProt P55199: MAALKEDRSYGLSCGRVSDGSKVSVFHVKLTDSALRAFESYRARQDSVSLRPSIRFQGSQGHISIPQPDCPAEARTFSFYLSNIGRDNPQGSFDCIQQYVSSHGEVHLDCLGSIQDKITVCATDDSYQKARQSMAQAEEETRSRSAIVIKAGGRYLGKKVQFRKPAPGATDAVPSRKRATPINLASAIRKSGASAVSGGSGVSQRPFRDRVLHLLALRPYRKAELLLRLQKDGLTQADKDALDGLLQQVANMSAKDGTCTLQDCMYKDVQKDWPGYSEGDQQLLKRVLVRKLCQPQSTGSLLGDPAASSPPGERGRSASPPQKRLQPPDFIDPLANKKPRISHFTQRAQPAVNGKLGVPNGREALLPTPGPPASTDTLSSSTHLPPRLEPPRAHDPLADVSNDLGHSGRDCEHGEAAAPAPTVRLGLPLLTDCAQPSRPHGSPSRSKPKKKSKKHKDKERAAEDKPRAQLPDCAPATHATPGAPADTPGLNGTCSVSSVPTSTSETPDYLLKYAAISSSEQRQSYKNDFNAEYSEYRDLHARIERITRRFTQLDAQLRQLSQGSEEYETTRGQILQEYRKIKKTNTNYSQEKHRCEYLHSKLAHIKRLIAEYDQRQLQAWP
UniProt P55010, whole entry: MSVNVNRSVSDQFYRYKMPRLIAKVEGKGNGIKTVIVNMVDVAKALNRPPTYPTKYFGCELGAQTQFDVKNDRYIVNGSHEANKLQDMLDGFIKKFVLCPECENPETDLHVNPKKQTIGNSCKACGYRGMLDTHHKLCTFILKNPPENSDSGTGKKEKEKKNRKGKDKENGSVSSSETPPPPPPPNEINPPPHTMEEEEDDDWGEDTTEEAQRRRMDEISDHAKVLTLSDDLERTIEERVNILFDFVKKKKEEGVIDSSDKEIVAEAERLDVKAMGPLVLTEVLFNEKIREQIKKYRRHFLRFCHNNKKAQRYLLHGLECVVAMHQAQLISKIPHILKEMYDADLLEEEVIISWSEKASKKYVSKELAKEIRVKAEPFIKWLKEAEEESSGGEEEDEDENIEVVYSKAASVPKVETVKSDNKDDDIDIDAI
UniProt P60468, whole entry: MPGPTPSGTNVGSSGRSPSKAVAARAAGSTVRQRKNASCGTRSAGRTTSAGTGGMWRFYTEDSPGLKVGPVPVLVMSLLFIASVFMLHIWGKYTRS
UniProt P55957: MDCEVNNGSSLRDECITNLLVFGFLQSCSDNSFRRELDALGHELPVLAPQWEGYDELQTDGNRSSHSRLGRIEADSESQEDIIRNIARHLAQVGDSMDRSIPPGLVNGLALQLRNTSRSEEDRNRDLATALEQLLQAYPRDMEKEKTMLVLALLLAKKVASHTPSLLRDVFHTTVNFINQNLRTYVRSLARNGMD
UniProt P61962: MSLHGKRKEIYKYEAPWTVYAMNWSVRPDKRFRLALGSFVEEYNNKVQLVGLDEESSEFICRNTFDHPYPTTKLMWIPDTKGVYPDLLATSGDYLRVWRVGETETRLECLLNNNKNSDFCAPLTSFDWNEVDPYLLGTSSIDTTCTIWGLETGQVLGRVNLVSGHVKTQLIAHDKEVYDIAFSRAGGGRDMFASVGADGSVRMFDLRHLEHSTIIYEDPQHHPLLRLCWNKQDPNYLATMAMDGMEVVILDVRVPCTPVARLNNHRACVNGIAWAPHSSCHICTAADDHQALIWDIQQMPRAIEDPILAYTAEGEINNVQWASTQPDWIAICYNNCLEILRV
UniProt P82970: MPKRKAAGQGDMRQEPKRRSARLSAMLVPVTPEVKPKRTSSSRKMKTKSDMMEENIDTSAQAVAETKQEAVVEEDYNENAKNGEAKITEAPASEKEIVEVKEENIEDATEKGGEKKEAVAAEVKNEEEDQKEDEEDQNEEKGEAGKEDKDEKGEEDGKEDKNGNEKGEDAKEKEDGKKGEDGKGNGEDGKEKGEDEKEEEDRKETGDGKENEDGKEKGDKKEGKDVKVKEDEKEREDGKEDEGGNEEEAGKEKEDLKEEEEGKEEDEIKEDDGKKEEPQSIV

Compound: Nc1nc2c(ncn2[C@@H]2O[C@H](COP(=O)(O)OP(=O)(O)OP(=O)(O)O)[C@@H](O)[C@H]2O)c(=O)[nH]1 [guanosine triphosphate]
Experiment: NP40-soluble protein abundance relative to vehicle (solubility fold change) (ratio); higher = more soluble protein in presence of GTP
Settings: concentration: 2mM
Summary of the method: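 Data come from three independent experiments in which Dounce-homogenised Jurkat crude lysate was treated at eight concentrations from 0.1 to 10 mM. Treatment ran 10 min at room temperature and then 3 min at 37 °C, after which 0.8% NP40 and benzonase were added for 60 min at 4 °C before ultracentrifugation. The supernatant underwent TMT labelling and LC-MS/MS, and vsn-normalised intensities were expressed as fold change against the detergent-processed vehicle in each replicate.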

Target	NP40-soluble protein abundance
KPNA1 (UniProt P52294)	1.06 ± 0.059
UniProt P60842	0.899 ± 0.11
GRB2 (UniProt P62993)	0.896 ± 0.054
SMS (UniProt P52788)	0.944 ± 0.034
UniProt P62330	0.997 ± 0.15
FOXK1 (UniProt P85037)	1.01 ± 0.075
MRPS6 (UniProt P82932)	1.36 ± 0.29
UniProt P78406 and related entries	0.986 ± 0.049
UniProt P82912 and related entries	1.32 ± 0.25

Same assay, conditions: concentration: 4mM

Target	NP40-soluble protein abundance
UniProt P51157 and related entries	0.934 ± 0.014
UniProt P62195	1.06 ± 0.15
UniProt P62072	1.01 ± 0.071
UniProt P61081	0.87 ± 0.06
MPP1 (UniProt Q00013)	0.989 ± 0.048
UniProt P61160 and related entries	0.939 ± 0.057
UniProt P84090	1.42 ± 0.16
UniProt P57772 and related entries	1.05 ± 0.075
UniProt P61244 and related entries	0.823 ± 0.053
NOP14 (UniProt P78316)	0.953 ± 0.021
UniProt P61009	0.9 ± 0.052
UniProt P68371	0.881 ± 0.19
UniProt P61129	0.915 ± 0.12
UniProt P54578 and related entries	0.903 ± 0.026
UniProt P62857	0.806 ± 0.15
UniProt P61764 and related entries	0.939 ± 0.076
CDK6 (UniProt Q00534)	0.864 ± 0.056
UniProt P55199 and related entries	1.02 ± 0.033
NCBP2 (UniProt P52298)	1.05 ± 0.077
UniProt P98155 and related entries	0.995 ± 0.071

Target	NP40-soluble protein abundance
EIF5 (UniProt P55010)	0.898 ± 0.069
UniProt P52564	0.95 ± 0.043
UniProt P62253	0.876 ± 0.043
EIF6 (UniProt P56537)	1.05 ± 0.031
CPT1A (UniProt P50416)	1.06 ± 0.1
SEC61B (UniProt P60468)	0.994 ± 0.14
UniProt P55957 and related entries	1.03 ± 0.053
UniProt P61962	1.02 ± 0.057
UniProt P62314	1.23 ± 0.17
UniProt P82970 and related entries	0.879 ± 0.012
KPNA1 (UniProt P52294)	1.06 ± 0.04
UniProt P60842	0.922 ± 0.13
GRB2 (UniProt P62993)	0.898 ± 0.08
SMS (UniProt P52788)	0.918 ± 0.02
UniProt P62330	0.964 ± 0.12
FOXK1 (UniProt P85037)	1.04 ± 0.023
MRPS6 (UniProt P82932)	1.3 ± 0.33
UniProt P78406 and related entries	1.02 ± 0.053
UniProt P82912 and related entries	1.43 ± 0.36

Same assay, conditions: concentration: 6mM

Target	NP40-soluble protein abundance
UniProt P51157 and related entries	0.934 ± 0.034
UniProt P62195	1.08 ± 0.19
UniProt P62072	1.04 ± 0.16
UniProt P61081	0.884 ± 0.067
MPP1 (UniProt Q00013)	0.934 ± 0.013
UniProt P61160 and related entries	0.992 ± 0.058
UniProt P84090	1.54 ± 0.1
UniProt P57772 and related entries	1.03 ± 0.054
UniProt P61244 and related entries	0.822 ± 0.089
NOP14 (UniProt P78316)	0.96 ± 0.03
UniProt P61009	0.885 ± 0.067
UniProt P68371	0.912 ± 0.13
UniProt P61129	0.959 ± 0.13
UniProt P54578 and related entries	0.897 ± 0.02
UniProt P62857	0.746 ± 0.14
UniProt P61764 and related entries	0.917 ± 0.057
CDK6 (UniProt Q00534)	0.909 ± 0.06
UniProt P55199 and related entries	1.01 ± 0.05
NCBP2 (UniProt P52298)	1.08 ± 0.085
UniProt P98155 and related entries	1.01 ± 0.071

Target	NP40-soluble protein abundance
EIF5 (UniProt P55010)	0.921 ± 0.085
UniProt P52564	0.926 ± 0.066
UniProt P62253	0.843 ± 0.063
EIF6 (UniProt P56537)	0.955 ± 0.034
CPT1A (UniProt P50416)	1.05 ± 0.13
SEC61B (UniProt P60468)	1.01 ± 0.077
UniProt P55957 and related entries	1.06 ± 0.066
UniProt P61962	1.01 ± 0.092
UniProt P62314	1.32 ± 0.24
UniProt P82970 and related entries	0.927 ± 0.059
KPNA1 (UniProt P52294)	1.05 ± 0.061
UniProt P60842	0.891 ± 0.14
GRB2 (UniProt P62993)	0.904 ± 0.06
SMS (UniProt P52788)	0.928 ± 0.038
UniProt P62330	0.926 ± 0.11
FOXK1 (UniProt P85037)	1.03 ± 0.054
MRPS6 (UniProt P82932)	1.28 ± 0.27
UniProt P78406 and related entries	1.06 ± 0.083
UniProt P82912 and related entries	1.3 ± 0.32

Same assay, conditions: concentration: 8mM

Target	NP40-soluble protein abundance
UniProt P51157 and related entries	0.951 ± 0.017
UniProt P62195	1.06 ± 0.16
UniProt P62072	1.09 ± 0.076
UniProt P61081	0.884 ± 0.046
MPP1 (UniProt Q00013)	0.927 ± 0.048
UniProt P61160 and related entries	0.937 ± 0.027
UniProt P84090	1.65 ± 0.14
UniProt P57772 and related entries	1.05 ± 0.052
UniProt P61244 and related entries	0.775 ± 0.07
NOP14 (UniProt P78316)	0.998 ± 0.045
UniProt P61009	0.844 ± 0.036
UniProt P68371	0.951 ± 0.14
UniProt P61129	0.954 ± 0.063
UniProt P54578 and related entries	0.895 ± 0.038
UniProt P62857	0.61 ± 0.093
UniProt P61764 and related entries	0.938 ± 0.043
CDK6 (UniProt Q00534)	0.89 ± 0.06
UniProt P55199 and related entries	1.029 ± 0.0093
NCBP2 (UniProt P52298)	1.08 ± 0.091
UniProt P98155 and related entries	1.07 ± 0.089

Target	NP40-soluble protein abundance
EIF5 (UniProt P55010)	0.94 ± 0.064
UniProt P52564	0.908 ± 0.045
UniProt P62253	0.899 ± 0.071
EIF6 (UniProt P56537)	0.956 ± 0.035
CPT1A (UniProt P50416)	1.03 ± 0.055
SEC61B (UniProt P60468)	0.887 ± 0.16
UniProt P55957 and related entries	0.944 ± 0.13
UniProt P61962	0.946 ± 0.021
UniProt P62314	1.23 ± 0.14
UniProt P82970 and related entries	1.01 ± 0.089
KPNA1 (UniProt P52294)	1.1 ± 0.079
UniProt P60842	0.864 ± 0.11
GRB2 (UniProt P62993)	0.899 ± 0.1
SMS (UniProt P52788)	0.922 ± 0.022
UniProt P62330	0.854 ± 0.1
FOXK1 (UniProt P85037)	1.09 ± 0.091
MRPS6 (UniProt P82932)	1.21 ± 0.32
UniProt P78406 and related entries	1.08 ± 0.056
UniProt P82912 and related entries	1.38 ± 0.39
